Some of the results follow.
Compound: CC1Cc2ccccc2N1C(=O)C1CCCN(C1)C(=O)CCl (mixture of isomers) [TRIM25 ligand 11 (diastereomer mixture)]
Experiment: probe-labelled cysteine peptide fold change vs DMSO (competition) (log2 fold change); higher = less target engagement (more negative = stronger competition)
Settings: THP-1, incubation time: 4 h
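Further: competitive chemoproteomic profiling in live THP-1 cells with an iodoacetamide desthiobiotin (IA-DTB) probe, comparing probe-labelled peptide intensities in compound-treated cells against DMSO-treated controls.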

Chains of the proteins cited; added tags and fusions are not shown. Lines headed by an entry give the natural chain unless they say otherwise; changes in a name come on top.
UniProt Q14166: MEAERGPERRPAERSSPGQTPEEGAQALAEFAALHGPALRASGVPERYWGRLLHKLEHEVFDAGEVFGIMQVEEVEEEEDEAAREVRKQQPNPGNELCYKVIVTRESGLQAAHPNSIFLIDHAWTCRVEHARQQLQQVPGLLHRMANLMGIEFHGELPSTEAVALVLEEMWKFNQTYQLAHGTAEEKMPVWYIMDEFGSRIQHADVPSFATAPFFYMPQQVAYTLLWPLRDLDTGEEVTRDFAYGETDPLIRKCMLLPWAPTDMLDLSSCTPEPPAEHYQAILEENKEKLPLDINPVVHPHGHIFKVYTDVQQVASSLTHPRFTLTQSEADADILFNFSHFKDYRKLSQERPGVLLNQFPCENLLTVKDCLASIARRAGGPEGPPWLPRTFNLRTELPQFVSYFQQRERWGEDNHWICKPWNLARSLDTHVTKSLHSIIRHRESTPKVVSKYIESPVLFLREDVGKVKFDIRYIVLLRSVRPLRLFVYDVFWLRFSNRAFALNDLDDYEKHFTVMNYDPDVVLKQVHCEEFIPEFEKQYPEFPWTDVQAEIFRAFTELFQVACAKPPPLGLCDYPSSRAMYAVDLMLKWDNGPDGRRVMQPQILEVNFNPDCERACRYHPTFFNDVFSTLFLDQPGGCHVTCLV
UniProt Q13630: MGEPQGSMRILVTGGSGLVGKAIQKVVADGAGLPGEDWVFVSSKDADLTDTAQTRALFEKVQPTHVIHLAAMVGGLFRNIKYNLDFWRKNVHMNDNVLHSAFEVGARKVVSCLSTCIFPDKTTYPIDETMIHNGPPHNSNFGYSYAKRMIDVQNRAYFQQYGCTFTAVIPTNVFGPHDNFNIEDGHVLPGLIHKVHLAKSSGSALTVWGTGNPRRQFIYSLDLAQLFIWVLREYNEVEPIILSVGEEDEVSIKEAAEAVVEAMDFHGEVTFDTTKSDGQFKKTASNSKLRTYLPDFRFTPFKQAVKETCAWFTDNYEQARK
UniProt Q9Y4A5, whole entry, looked up: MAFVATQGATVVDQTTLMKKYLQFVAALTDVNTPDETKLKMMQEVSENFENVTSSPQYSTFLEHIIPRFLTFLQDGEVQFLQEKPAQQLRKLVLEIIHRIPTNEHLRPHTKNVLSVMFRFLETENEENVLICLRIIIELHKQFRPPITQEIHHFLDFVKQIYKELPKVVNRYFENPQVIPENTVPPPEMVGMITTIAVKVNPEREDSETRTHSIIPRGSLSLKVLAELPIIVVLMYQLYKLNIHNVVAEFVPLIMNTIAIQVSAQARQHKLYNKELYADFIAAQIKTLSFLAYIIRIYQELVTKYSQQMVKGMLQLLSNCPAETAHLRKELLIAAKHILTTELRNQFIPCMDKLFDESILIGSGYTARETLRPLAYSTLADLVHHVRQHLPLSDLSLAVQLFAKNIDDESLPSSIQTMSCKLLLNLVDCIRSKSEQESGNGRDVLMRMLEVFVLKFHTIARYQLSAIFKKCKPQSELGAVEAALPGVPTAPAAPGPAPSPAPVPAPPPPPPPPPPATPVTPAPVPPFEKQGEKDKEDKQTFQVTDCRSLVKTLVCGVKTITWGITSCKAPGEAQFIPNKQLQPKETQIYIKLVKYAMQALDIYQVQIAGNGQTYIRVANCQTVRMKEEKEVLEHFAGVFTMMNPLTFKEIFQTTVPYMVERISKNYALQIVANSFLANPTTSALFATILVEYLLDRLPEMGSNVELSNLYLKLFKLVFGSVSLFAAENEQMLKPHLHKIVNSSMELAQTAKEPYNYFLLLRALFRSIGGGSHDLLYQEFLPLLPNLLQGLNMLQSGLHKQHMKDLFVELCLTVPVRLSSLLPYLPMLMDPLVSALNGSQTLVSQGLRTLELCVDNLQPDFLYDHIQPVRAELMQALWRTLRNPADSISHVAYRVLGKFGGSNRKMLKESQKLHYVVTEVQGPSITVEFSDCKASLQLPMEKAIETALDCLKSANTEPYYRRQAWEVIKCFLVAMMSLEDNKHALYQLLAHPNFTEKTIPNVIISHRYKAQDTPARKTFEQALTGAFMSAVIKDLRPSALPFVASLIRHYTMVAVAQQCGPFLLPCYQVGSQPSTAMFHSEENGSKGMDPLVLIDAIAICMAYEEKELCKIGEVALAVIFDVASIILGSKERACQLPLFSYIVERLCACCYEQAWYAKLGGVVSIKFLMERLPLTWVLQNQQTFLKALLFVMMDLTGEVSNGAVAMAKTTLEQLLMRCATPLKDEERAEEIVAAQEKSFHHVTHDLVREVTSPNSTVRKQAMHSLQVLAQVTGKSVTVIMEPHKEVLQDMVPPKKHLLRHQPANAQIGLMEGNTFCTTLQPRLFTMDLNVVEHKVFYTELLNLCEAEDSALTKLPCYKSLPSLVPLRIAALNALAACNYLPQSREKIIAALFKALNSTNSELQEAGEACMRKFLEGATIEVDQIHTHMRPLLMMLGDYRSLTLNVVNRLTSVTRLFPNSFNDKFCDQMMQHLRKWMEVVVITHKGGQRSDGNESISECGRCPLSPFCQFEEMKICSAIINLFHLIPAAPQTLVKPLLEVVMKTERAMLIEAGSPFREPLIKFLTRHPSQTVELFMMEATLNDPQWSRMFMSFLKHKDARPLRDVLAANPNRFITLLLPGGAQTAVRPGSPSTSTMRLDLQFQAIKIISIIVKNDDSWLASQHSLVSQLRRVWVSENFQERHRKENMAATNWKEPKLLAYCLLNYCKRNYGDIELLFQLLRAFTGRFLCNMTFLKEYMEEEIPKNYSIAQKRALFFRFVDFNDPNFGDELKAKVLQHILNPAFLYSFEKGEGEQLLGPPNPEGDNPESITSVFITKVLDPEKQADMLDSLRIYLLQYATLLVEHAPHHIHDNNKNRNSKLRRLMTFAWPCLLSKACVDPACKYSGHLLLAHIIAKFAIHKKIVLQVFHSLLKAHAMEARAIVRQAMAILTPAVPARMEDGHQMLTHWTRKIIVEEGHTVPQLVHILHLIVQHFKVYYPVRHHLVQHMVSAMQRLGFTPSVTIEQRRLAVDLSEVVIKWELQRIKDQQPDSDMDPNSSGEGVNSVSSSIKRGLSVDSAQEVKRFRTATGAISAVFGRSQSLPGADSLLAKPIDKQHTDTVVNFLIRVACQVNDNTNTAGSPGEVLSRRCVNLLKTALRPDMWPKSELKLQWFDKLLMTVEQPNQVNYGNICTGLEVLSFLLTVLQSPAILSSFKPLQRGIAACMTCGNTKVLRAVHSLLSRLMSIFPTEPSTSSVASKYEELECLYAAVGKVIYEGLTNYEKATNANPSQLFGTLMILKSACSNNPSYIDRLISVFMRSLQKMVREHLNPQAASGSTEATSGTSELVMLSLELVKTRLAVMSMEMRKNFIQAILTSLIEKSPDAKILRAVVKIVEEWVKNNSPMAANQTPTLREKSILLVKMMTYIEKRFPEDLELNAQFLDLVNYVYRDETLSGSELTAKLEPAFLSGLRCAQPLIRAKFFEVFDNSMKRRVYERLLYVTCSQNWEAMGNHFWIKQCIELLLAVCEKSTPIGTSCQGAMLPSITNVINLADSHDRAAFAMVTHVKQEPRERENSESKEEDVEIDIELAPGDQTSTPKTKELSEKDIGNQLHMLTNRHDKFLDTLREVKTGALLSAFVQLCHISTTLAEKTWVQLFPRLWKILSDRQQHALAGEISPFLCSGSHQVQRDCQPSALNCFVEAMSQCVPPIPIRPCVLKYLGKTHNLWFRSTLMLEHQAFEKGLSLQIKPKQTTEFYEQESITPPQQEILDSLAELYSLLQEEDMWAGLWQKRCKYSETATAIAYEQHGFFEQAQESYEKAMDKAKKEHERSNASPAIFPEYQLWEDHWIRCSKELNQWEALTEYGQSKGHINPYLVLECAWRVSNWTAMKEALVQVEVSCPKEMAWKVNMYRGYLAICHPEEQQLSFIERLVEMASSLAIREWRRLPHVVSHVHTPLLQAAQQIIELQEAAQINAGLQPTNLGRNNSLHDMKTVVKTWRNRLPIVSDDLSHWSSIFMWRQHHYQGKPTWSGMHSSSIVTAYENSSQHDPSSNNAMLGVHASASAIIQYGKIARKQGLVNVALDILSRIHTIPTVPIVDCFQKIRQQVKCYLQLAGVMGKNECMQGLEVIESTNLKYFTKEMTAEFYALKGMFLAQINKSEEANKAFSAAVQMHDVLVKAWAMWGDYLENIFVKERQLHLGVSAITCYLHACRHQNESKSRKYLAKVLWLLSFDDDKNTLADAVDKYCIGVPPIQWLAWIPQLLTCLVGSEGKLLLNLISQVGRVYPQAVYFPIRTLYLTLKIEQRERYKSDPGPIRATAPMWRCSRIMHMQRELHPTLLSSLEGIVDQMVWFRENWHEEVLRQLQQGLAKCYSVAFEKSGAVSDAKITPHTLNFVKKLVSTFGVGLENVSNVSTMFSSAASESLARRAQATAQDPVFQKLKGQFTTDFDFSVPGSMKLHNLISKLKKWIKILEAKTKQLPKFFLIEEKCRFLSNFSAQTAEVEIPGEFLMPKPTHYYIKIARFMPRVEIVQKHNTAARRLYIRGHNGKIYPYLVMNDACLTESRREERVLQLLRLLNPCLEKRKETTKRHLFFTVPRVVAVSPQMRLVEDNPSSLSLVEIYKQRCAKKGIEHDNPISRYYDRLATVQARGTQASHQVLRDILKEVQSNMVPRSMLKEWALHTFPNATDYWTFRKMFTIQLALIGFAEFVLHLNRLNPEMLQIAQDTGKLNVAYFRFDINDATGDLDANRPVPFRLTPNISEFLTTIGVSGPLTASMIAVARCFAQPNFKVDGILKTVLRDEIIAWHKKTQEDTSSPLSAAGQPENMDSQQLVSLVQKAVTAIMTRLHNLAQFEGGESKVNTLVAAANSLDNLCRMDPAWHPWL
UniProt Q9ULT0: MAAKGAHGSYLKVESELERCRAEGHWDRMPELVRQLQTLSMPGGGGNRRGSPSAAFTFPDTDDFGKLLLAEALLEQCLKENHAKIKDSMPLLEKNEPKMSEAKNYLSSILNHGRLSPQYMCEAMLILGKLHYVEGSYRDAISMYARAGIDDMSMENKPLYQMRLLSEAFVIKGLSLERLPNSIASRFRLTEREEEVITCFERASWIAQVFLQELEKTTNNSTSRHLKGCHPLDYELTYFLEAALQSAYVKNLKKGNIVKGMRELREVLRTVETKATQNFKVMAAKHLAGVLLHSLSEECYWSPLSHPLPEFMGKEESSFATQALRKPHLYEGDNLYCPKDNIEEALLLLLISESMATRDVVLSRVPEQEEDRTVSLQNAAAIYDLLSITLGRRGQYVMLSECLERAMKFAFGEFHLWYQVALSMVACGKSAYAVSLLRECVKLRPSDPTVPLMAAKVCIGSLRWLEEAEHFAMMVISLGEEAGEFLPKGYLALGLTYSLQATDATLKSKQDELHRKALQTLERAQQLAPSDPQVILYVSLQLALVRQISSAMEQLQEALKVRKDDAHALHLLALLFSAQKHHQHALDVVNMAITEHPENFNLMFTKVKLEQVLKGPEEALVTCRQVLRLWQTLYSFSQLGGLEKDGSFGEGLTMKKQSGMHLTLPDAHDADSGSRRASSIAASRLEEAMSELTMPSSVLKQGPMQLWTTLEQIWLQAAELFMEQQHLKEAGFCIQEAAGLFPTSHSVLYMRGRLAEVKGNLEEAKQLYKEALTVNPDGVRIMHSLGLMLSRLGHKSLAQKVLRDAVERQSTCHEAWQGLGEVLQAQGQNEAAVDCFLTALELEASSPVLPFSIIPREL
UniProt Q15631: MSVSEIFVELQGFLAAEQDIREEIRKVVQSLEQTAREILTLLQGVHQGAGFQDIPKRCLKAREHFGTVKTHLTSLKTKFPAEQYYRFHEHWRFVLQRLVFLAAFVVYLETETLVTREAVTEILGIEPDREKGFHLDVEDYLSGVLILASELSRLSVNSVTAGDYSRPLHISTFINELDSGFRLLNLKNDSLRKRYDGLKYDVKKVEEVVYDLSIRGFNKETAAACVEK
UniProt Q7Z6J9: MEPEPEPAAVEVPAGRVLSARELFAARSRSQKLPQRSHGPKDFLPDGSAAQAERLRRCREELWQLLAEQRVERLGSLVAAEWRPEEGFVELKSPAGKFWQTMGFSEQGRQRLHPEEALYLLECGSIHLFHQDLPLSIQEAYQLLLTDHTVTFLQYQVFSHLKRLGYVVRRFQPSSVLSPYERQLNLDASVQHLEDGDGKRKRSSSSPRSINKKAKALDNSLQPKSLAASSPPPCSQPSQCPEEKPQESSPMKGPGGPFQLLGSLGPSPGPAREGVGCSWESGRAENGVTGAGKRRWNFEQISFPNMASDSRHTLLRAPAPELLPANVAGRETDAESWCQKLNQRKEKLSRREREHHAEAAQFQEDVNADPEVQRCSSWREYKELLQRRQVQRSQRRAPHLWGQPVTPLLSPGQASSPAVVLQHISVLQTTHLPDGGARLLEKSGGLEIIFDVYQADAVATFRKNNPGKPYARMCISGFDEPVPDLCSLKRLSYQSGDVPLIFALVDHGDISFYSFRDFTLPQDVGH

| Target | probe-labelled cysteine peptide fold change (10 µM) | probe-labelled cysteine peptide fold change (50 µM) |
| --- | --- | --- |
| TSC22D4_Q9Y3Q8_92_WTCVDVYERDLEPHSFGGLLEGIR (UniProt Q9Y3Q8) | 0.119 | -0.12 |
| TRMT2A_Q8IZ69_225_ACCPLEGVRPSPQQTEYR (UniProt Q8IZ69) | -0.191 | -0.217 |
| TTI1_O43156_994_LQLAVLQGLGPLCER (UniProt O43156) | 0.132 | 0.1 |
| TTC28_Q96AY4_794_ALGYHTQELEVYQELSDLPGECR (UniProt Q96AY4) | 0.126 | -0.0624 |
| TXNDC11_Q6PKC3_568_KCEVDAPSSVPHIEENR (UniProt Q6PKC3) | 0.11 | -0.0552 |
| TUBB6_Q9BUF5_127+129_ECEHCDCLQGFQLTHSLGGGTGSGMGTLLISK (UniProt Q9BUF5) | 0.0741 | 0.0272 |
| TSC2_P49815_395_TIVHDLLTTVEELCDQNEFHGSQER (UniProt P49815) | 0.427 | -0.0548 |
| TTLL12_Q14166_528_QVHCEEFIPEFEK (UniProt Q14166) | -0.0439 | -0.061 |
| TSTA3_Q13630_116_VVSCLSTCIFPDK (UniProt Q13630) | 0.0546 | -0.122 |
| TRRAP_Q9Y4A5_3085_CYLQLAGVMGK (UniProt Q9Y4A5) | -0.0598 | 0.194 |
| TUFM_P49411_290_KGDECELLGHSK (UniProt P49411) | -0.0183 | -0.139 |
| TUT4_Q5TAX3_966_CFDELSPPCSEQHNR (UniProt Q5TAX3) | -0.0327 | -0.0253 |
| TSC1_Q92574_259_RLETHDVVIECAK (UniProt Q92574) | 0.188 | 0.372 |
| TSPO_P30536_19_APPWVPAMGFTLAPSLGCFVGSR (UniProt P30536) | 0.0413 | 0.016 |
| TTF2_Q9UNY4_754_VQTSIAVCK (UniProt Q9UNY4) | -0.0312 | -0.0186 |
| TTC7A_Q9ULT0_733_EAGFCIQEAAGLFPTSHSVLYMR (UniProt Q9ULT0) | -0.0283 | -0.206 |
| TRRAP_Q9Y4A5_852_TLELCVDNLQPDFLYDHIQPVR (UniProt Q9Y4A5) | 0.187 | -0.177 |
| TTC1_Q99614_178_EMAINDCSK (UniProt Q99614) | -0.137 | 0.0317 |
| TSN_Q15631_225_ETAAACVEK (UniProt Q15631) | -0.0395 | -0.146 |
| TTLL12_Q14166_418_ERWGEDNHWICKPWNLAR (UniProt Q14166) | -0.426 | -0.297 |
| TSEN54_Q7Z6J9_277_EGVGCSWESGR (UniProt Q7Z6J9) | -0.0393 | -0.141 |
| TTLL12_Q14166_361_LSQERPGVLLNQFPCENLLTVK (UniProt Q14166) | 0.0747 | -0.0286 |
| TSFM_P43897_240_YGALVICETSEQK (UniProt P43897) | 0.174 | 0.363 |
| TTK_P33981_322_DLVVPGSKPSGNDSCELR (UniProt P33981) | -0.042 | -0.0632 |
| TTC5_Q8N0Z6_125_KGDVAAAHTCFSGALTHCR (UniProt Q8N0Z6) | 0.0196 | 0.225 |
| TSTA3_Q13630_112_VVSCLSTCIFPDK (UniProt Q13630) | -0.022 | 0.0145 |
| TSTA3_Q13630_112_KVVSCLSTCIFPDK (UniProt Q13630) | -0.314 | -0.166 |
